Screen size: about 300,000 compounds; about 3,700 (1.2%) were called active. Inconclusive means that the source gave no clear call. Such entries were picked first, then a sample of the others. Calls follow the shape of the full dose curve; tested in HEK293 cells. Potencies beside an inconclusive call are fits to weak or partial responses and may not hold up.
test: qHTS for Inhibitors of binding or entry into cells for Lassa Virus; details: Lassa virus pseudotype entry inhibition, cell reporter; activity change, negative = inhibition: at 37.9 µM (top of the series) unless noted; also: nearly all actives have a fitted effect of over 50% in size
% is scaled to controls: 0 for no effect and ±100 for the full control effect; potency is read from the fitted curve at half-maximal effect.

SMILES	Potency	activity change, negative = inhibition
COc1ccc2c(c1)C(C)=CC(C)(C)N2S(=O)(=O)c1ccc(C)cc1	inconclusive: 7.08 µM [inhibitor, full curve, poor fit]	–
CCNc1ccc(N=Nc2c(C)n(C)n(-c3ccccc3)c2=O)cc1	–	inactive: 26%
O=C(CSc1nnc(-c2ccccc2Br)o1)N1CCOCC1	inconclusive: 12.6 µM [inhibitor, single point]	–
CCOC(=O)N1CCC(NS(=O)(=O)c2cc3c(cc2C)NC(=O)CO3)CC1	inconclusive: 18.3 µM [inhibitor, partial curve, poor fit]	–
C=COCCNC(=O)Nc1ccc(Cl)c(Cl)c1	–	inactive: 13.4%
Cn1cc(C(c2ccccc2OCC(=O)O)c2cn(C)c3ccccc23)c2ccccc21	inconclusive: 0.891 µM [inhibitor, single point]	–
Cc1ccc(CNC(=O)CCCc2c[nH]c3ccccc23)cc1	–	inactive: -25.1% [at 46.1 µM]
Cc1ccc(NC(=O)C(=O)NCC(c2cccnc2)N2CCOCC2)cc1C (configuration not stated)	inconclusive: 22.4 µM [inhibitor, single point]	–
COc1cccc(NC(=O)c2ccc(-c3ccccc3[N+](=O)[O-])o2)c1	inconclusive: 35.5 µM [inhibitor, partial curve, poor fit]	–
CC(NC1CCN(Cc2ccccc2)CC1)c1ccc(F)cc1 (configuration not stated)	inconclusive: 25.1 µM [inhibitor, single point]	–
COc1cc(CCC(=O)Nc2ccc(Cl)c(C(F)(F)F)c2)cc(OC)c1OC	–	inactive: -5.07%
CC1(C)Cc2c(c(N3CCOCC3)nc3sc(C(N)=O)c(N)c23)CO1	–	inactive: 9.79%
COc1cc(-c2nc(-c3cccc(C)c3)no2)cc(OC)c1OC	–	inactive: -2.3%
CCOc1ccc(C(=O)/C=C/c2cc(OC)c(OC)c(OC)c2)cc1	inconclusive: 4.47 µM [inhibitor, partial curve, poor fit]	–
CC(=O)NCCNC(=O)CCCc1nnc2n(CCC(C)C)c(=O)c3sccc3n12	–	inactive: 9.73% [at 46.1 µM]
COc1ccc(/C=C2\C(=N\O)C3CCN2CC3)cc1	inconclusive: 36.6 µM [inhibitor, partial curve, poor fit]	–
CCC(C)(C)NC(=O)CCCSc1nc2ccccc2s1	inconclusive: 35.5 µM [inhibitor, partial curve, poor fit]	–
CCCCn1c(SCC(=O)Nc2nnc(C(C)C)s2)nc2c1c(=O)n(C)c(=O)n2C	inconclusive: 5.8 µM [inhibitor, partial curve, poor fit]	–
COc1ccc(-n2cc(CNC3CCN(C)CC3)c(-c3cccc(F)c3)n2)cc1	active: 11.2 µM	–
COC(=O)c1sccc1NC(=O)Nc1cccc(Cl)c1Cl	inconclusive: 25.1 µM [activator, partial curve, poor fit]	–
COc1ccc2c(c1)CC(N1CCN(C)CC1)c1cc(OC)ccc1S2 (configuration not stated)	inconclusive: 31.6 µM [inhibitor, single point]	–
Cc1[nH]nc2c1-c1nc3ccccc3nc1C(C)(C)C2	inconclusive: 29.1 µM [inhibitor, single point]	–
COc1ccc2oc(=O)cc(CN3CCN(C(=O)c4ccccc4F)CC3)c2c1	–	inactive: -2.75% [at 46.1 µM]
COc1ccc(C)c2sc(N(CCCN(C)C)C(=O)c3ccc4c(c3)OCCO4)nc12	active: 10 µM	–

SMILES	Potency	activity change, negative = inhibition
S=c1[nH]nc(SCc2ccccc2)c2[nH]cnc12	inconclusive: 39.8 µM [activator, partial curve, poor fit]	–
CCc1cc2ccc(C)c(C)c2nc1SCC(=O)Nc1cc(C)on1	inconclusive: 3.55 µM [inhibitor, single point]	–
Cc1cc(NC(=O)c2ccc3c(c2)C(=O)N(c2cccc(C)c2C)C3=O)no1	–	inactive: 3.27%
COc1cccc(-c2cn3c(n2)sc2cc(C(=O)NCc4cccs4)ccc23)c1	–	inactive: -0.184% [at 46.1 µM]
Oc1ccc(Br)cc1CN1CCN(c2ccccc2)CC1	inconclusive: 18.3 µM [inhibitor, single point]	–
Cc1[nH]c2ccccc2c1C(=O)CN1CCN(C/C=C/c2ccccc2)CC1	inconclusive: 25.1 µM [inhibitor, partial curve, poor fit]	–
CC1=C(C(=O)Nc2ccccc2)C(c2ccco2)NC(=O)N1 (configuration not stated)	–	inactive: 0.202%
COc1ccc(/C=N/NC(=O)CCn2cnc(-c3ccccc3)c2-c2ccccc2)cc1	active: 2.31 µM	–
N/C(=N\c1nc2ccccc2o1)NC(=O)c1ccc([N+](=O)[O-])cc1	inconclusive: 0.562 µM [inhibitor, full curve, poor fit]	–
CC(=O)c1ccc(N(C(=O)Cc2c[nH]c3ccccc23)C(C(=O)NC2CCCCC2)c2cccs2)cc1 (configuration not stated)	inconclusive: 20.6 µM [inhibitor, single point]	–
Cc1ccc(C(C)(C)C)c(OCCCCN2CCCC2)c1	inconclusive: 29.1 µM [inhibitor, single point]	–
Nc1c(NCCN2CCCCC2)c2ccccc2oc1=O	–	inactive: -6.46%
O=C(/C=C/c1ccccc1)NC(=S)NNC(=O)c1cnccn1	active: 7.94 µM	–
CCOc1ccc(-c2cc(C(=O)NCCCn3ccnc3)c3cc(Br)ccc3n2)cc1	inconclusive: 35.5 µM [inhibitor, single point]	–
CN(C)S(=O)(=O)c1cc(NC(=O)COC(=O)CCSc2ccc(Cl)cc2)ccc1Cl	–	inactive: -4.58%
COc1ccc(NC(=O)Cn2c(CCC(=O)O)ccc2-c2ccccc2)cc1Cl	inconclusive: 11.2 µM [activator, single point]	–
CCN1CCc2c(sc(NC(=S)NC(=O)c3ccccc3)c2C#N)C1	inconclusive: 15.8 µM [activator, single point]	–
CCCN(CCC)CCCNC(=O)C1CCC(CNS(=O)(=O)c2ccc(NC(C)=O)cc2)CC1 (configuration not stated)	–	inactive: 7.54% [at 46.1 µM]
O=C(Nc1cccc(NC(=O)N2CCN(c3ccccc3)CC2)c1)N1CCN(c2ccccc2)CC1	inconclusive: 20 µM [inhibitor, partial curve, poor fit]	–
COc1ccc(NC(=O)CSc2nc3nc(C)cc(C)n3n2)cc1	inconclusive: 1 µM [inhibitor, full curve, poor fit]	–
CSc1cccc(NC(=O)C(C)C)c1	–	inactive: 18.8%
COc1c(C)cc(C(=O)C2CCCN(S(=O)(=O)c3c(C)noc3C)C2)cc1C (configuration not stated)	inconclusive: 7.94 µM [inhibitor, partial curve, poor fit]	–
CCOc1ccc(CNS(=O)(=O)c2ccc3[nH]c4c(c3c2)CCCC4)cc1OC	–	inactive: -0.271% [at 46.1 µM]
CCn1c(SCC(=O)Nc2ccccc2OC)nc2ccccc2c1=O	–	inactive: 4.22%

SMILES	Potency	activity change, negative = inhibition
C=CCc1cc(Cl)ccc1OCCOCCNC(C)CC (configuration not stated)	inconclusive: 35.5 µM [inhibitor, single point]	–
Cc1cccc2nc(COc3ccc(Cl)c4cccnc34)cn12	inconclusive: 20 µM [inhibitor, partial curve, poor fit]	–
O=C(Nc1cccc(S(=O)(=O)c2cccc(NC(=O)C3CC3)c2)c1)C1CC1	active: 20.6 µM	–
O=C(Nc1ccccc1C(=O)O)c1cc(S(=O)(=O)N2CCCCC2)c(Cl)cc1Cl	inconclusive: 2.51 µM [inhibitor, full curve]	–
CC(C)(C)N(Cc1ccccc1)C(=O)COC(=O)c1ccc2ccccc2n1	–	inactive: 9.7% [at 46.1 µM]
COc1ccc(/C=N/Nc2nc(C)cc(-c3ccccc3)n2)cc1OC	–	inactive: -23.7% [at 46.1 µM]
N/C(=N\OC(=O)CCc1ccccc1)c1cccc(Br)c1	–	inactive: -19.6%
O=C(CSc1nc(-c2cccs2)cc(C(F)(F)F)n1)Nc1cc(OCC(F)(F)F)cc([N+](=O)[O-])c1	inconclusive: 35.5 µM [inhibitor, single point]	–
CCc1cc(=O)n2[nH]c(-c3ccccc3)c(-c3ccccc3)c2n1	inconclusive: 8.91 µM [inhibitor, partial curve, poor fit]	–
O=C(NCCc1ccc2c(c1)OCCO2)c1ccccn1	inconclusive: 22.4 µM [inhibitor, single point]	–
c1ccc(-c2ccccc2OCCCN2CCCC2)cc1	inconclusive: 20.6 µM [inhibitor, partial curve, poor fit]	–
S=C(Nc1ccccc1Cl)N(CCN1CCCCC1)Cc1ccco1	–	inactive: -1.11%
CCC(=O)N1CCN(c2ccc(NC(=O)c3ccc4c(c3)OCO4)cc2)CC1	–	inactive: 5.11%
Cc1ccc2c(c1)C(=O)C(=O)N2CCOc1ccccc1	inconclusive: 35.5 µM [inhibitor, single point]	–
Cc1ccccc1CSc1cn(CCNC(=O)c2cccs2)c2ccccc12	inconclusive: 35.5 µM [inhibitor, single point]	–
COc1ccc(-c2cnnc(N/N=C/c3ccc(C)o3)n2)cc1	inconclusive: 1.58 µM [inhibitor, full curve, poor fit]	–
COc1ccc(C(=O)NCC(=O)OCc2c(Cl)cccc2Cl)cc1OC	–	inactive: -5.13%
O=C(NCCSc1ncc(-c2ccc(F)cc2)[nH]1)c1ccc2c(c1)OCO2	–	inactive: -1.27%
CCOc1c(Br)cc(C(N)=O)cc1OCc1ccccc1	active: 11.6 µM	–
CNC(=O)NC(=O)C(C)OC(=O)c1c2c(nc3ccccc13)/C(=C/c1cccs1)CC2 (configuration not stated)	inconclusive: 3.16 µM [inhibitor, partial curve, poor fit]	–
CCCCNC(=O)/C=C/c1cccs1	inconclusive: 35.5 µM [inhibitor, single point]	–
CCOC(=O)c1c(C)oc2nc(C)nc(Nc3cccc(OC)c3)c12	inconclusive: 4.47 µM [activator, partial curve, poor fit]	–
NC(=O)Cc1nc(-c2ccc(Br)cc2)cs1	–	inactive: 0.139%
Brc1ccc(-c2ncc(-c3ccccc3)cn2)cc1	inconclusive: 0.891 µM [activator, full curve, poor fit]	–

Quoted from the listing:
Entry of COc1ccc(C(=O)NCC(=O)OCc2c(Cl)cccc2Cl)cc1OC under activity change, negative = inhibition: inactive: -5.13%
Entry of CC1(C)Cc2c(c(N3CCOCC3)nc3sc(C(N)=O)c(N)c23)CO1 under activity change, negative = inhibition: inactive: 9.79%

— PubChem BioAssay AID540256 (National Center for Advancing Translational Sciences (NCATS), 2011)
